From publication PMC5099554 (British Journal of Clinical Pharmacology, 2016)
Where two headings read alike, the source gives them in different places.

Experiments:
[1] = male, human, in vivo, healthy male subjects, plasma; for AUC(0-inf): AUCinf; for AUC(0-inf) / AUC(0-t): geometric mean; for AUC(0-t): AUClast; for Tmax: t max (median)
P-gp = settings: male, human, in vivo, 30 mg, AUClast, geometric mean, healthy male subjects, plasma
[2] = After FRG, after 2 weeks of fermented red ginseng
[3] = Before FRG, before fermented red ginseng

- AUC(0-inf) [1, 2]: 612 ng·h/mL
- AUC(0-inf) [1, 3]: 468 ng·h/mL
- AUC(0-t) [1, 2]: 595 ng·h/mL
- AUC(0-t) [1, 3]: 450 ng·h/mL
- Tmax [1, 2]: 2 h
- Tmax [1, 3]: 2 h
- AUC(0-t) (P-gp; [2]): 595 ng·h/mL
- AUC(0-t) (P-gp; [3]): 450 ng·h/mL
Structure (SMILES): CC(C)(C(=O)O)c1ccc(C(O)CCCN2CCC(C(O)(c3ccccc3)c3ccccc3)CC2)cc1 (centres unmarked) [Fexofenadine, fexofenadine]
